Results reported in publication PMC11887511 (Crystal Growth & Design, 2025).

What was measured:
[1] = Metal incorporated into bulk α-gly crystals, elemental analysis (ICP-OES); conditions: α-gly crystals grown with 1 mol % metal salt, aqueous, S 1.3-1.45; a = below detection limit
[2] = Metal incorporated at α-gly crystal facets, XPS; conditions: α-gly crystals grown with 1 mol % metal salt, aqueous, S 1.3-1.45; trends rather than absolute values
[3] = Facet specific crystal growth rates of α-gly seed crystals in a flow cell; conditions: 1 mol % additive, water, 15 °C

Structure (SMILES) | mol % of metal in bulk [1] | mol % of metal in {011} [2] | effect on growth of the {011} faces of α-gly [3] | effect on growth rates of the {020} faces of α-gly [3]
[Cl][Cu][Cl] [Cu(II), copper(II) chloride] | 0.14% | 5% | – | –
O.O.O.O.[Cl][Fe][Cl] [Fe(II), iron(II) chloride tetrahydrate] | 0.27% | 12% | – | –
O=C(O)CNCC(=O)O [IDA, iminodiacetic acid] | – | – | very effective crystal growth inhibitor | very effective crystal growth inhibitor
O=C(O)CC(=O)O [MA, malonic acid] | – | – | noticeable inhibition effect | minor impact
O=C(O)c1ccccc1O [SA, salicylic acid] | – | – | noticeable inhibition effect | minor impact
[Cl-].[Cl-].[Zn+2] [Zn(II), zinc(II) chloride] | <0.1 ^a % | 2% | – | –

Marks after values point to notes of the source that are not given here.
